From article PMC6365888
Results are given in words; binding and its absence hold for the method and conditions named. Binding seen in cells or lysates may run through a third protein. Some entries that bind do so weakly or less than the wild type.

Chains of the proteins cited; added tags and fusions are not shown. Residues count along the entry.
UniProt P02545, residues 1-646: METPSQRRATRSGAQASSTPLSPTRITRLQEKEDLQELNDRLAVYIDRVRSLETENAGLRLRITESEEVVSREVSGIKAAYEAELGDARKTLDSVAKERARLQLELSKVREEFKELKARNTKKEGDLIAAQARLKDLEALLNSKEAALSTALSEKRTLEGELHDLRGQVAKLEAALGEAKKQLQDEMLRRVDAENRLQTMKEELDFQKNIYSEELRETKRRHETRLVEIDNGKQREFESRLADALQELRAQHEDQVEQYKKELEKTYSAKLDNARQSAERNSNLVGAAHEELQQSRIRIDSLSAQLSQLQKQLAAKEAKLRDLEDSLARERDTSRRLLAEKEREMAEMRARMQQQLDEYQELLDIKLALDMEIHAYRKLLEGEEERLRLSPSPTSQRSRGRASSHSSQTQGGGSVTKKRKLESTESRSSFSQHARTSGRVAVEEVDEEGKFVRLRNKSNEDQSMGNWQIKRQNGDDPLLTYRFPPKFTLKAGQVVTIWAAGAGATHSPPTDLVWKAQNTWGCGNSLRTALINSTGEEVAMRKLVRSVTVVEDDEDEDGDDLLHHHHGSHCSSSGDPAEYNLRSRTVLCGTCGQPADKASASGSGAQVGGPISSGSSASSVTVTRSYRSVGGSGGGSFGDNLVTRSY
UniProt Q92769: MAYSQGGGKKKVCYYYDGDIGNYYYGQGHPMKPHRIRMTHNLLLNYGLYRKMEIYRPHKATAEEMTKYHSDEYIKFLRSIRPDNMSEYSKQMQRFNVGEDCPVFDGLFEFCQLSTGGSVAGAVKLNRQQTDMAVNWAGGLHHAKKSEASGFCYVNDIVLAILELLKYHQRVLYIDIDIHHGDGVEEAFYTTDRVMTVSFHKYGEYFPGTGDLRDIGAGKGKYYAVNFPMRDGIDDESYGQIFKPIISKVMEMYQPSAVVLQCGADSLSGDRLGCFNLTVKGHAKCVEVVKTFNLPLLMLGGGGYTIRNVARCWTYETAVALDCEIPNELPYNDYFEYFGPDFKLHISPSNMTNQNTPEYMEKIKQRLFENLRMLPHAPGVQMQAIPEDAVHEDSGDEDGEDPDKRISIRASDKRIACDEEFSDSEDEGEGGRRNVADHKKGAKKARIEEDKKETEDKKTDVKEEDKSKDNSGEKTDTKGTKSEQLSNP

Experiments:
[1] = molecular target: FLAG-tagged wild-type lamin A (LA-WT) (UniProt P02545); assay: co-IP; transfected HEK293 cells, 700 ug lysate in high detergent IP buffer (50 mM TRIS-HCl pH 8, 250 mM NaCl, 0.1% SDS, 1% NP-40) incubated overnight with anti-FLAG, protein A/G, western blot for endogenous HDAC2
[2] = molecular target: lamin A/C (human (endogenous in HeLa and human dermal fibroblasts)) (UniProt P02545); assay: proximity ligation; in situ Duolink PLA on methanol-fixed human dermal fibroblasts (control and HGPS), primary antibodies overnight at 4 °C; cells untreated or treated with mevinolin, TSA, MS-275, MC1568, TSA + mevinolin or H2O2
[3] = molecular target: lamin A/C (human (endogenous in HeLa and human dermal fibroblasts)) (UniProt P02545); assay: co-IP; 700 ug lysate in high detergent IP buffer (50 mM TRIS-HCl pH 8, 250 mM NaCl, 0.1% SDS, 1% NP-40) incubated overnight with anti-lamin A/C (Novocastra), protein A/G, western blot for HDAC2; cells untreated or treated with mevinolin

Measured: binding

histone deacetylase 2 (HDAC2) (from UniProt Q92769 1-488) (enzyme)
binds: [1] | [2] | [3]
